In PMC6954211:
No constants are given. Whether binding was seen depends on the method and setting. For some of these results: In cells and extracts the contact can be indirect. Some results given as binding are weak or reduced against the parent protein; the word gives no strength. Where a sequence is shown, tags or fusion partners need not be part of it.

T1: GST-PHD (PHD finger of Arabidopsis SIZ1 fused to GST) (Arabidopsis) (UniProt Q680Q4)
T1 sequence: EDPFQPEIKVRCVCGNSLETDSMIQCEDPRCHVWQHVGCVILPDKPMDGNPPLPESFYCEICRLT

T2: GST-PHD(C162S) (Arabidopsis) (UniProt Q680Q4)
T2 sequence: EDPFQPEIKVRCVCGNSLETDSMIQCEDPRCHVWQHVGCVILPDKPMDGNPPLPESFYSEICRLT

T3: SIZ1-FLAG (full-length Arabidopsis SIZ1 with FLAG and His tags) (Arabidopsis) (UniProt Q680Q4)
T3 sequence: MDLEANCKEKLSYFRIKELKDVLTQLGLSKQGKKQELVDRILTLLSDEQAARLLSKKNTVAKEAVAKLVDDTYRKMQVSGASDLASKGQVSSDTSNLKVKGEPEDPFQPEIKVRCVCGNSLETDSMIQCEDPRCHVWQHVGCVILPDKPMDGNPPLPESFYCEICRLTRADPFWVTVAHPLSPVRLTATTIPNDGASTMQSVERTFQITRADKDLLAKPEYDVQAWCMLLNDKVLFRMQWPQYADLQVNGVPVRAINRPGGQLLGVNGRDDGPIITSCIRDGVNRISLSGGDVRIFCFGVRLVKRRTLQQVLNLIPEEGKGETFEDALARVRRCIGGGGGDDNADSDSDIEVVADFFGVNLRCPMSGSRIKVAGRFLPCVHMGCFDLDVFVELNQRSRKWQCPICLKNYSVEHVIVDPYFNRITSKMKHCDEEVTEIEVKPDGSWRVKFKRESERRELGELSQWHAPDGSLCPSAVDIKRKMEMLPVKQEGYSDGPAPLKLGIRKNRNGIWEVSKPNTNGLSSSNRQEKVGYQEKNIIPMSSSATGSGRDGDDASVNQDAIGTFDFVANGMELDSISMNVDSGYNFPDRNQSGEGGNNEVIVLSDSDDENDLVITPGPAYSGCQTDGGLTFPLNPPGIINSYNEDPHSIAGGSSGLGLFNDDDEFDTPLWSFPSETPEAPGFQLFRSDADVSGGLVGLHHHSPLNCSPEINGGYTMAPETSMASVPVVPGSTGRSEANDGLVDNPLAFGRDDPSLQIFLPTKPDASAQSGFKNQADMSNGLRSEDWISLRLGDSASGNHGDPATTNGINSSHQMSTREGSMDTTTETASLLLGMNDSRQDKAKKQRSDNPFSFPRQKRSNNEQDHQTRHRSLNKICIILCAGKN

T4: SIZ1(C162S)-FLAG (Arabidopsis) (UniProt Q680Q4)
T4 sequence: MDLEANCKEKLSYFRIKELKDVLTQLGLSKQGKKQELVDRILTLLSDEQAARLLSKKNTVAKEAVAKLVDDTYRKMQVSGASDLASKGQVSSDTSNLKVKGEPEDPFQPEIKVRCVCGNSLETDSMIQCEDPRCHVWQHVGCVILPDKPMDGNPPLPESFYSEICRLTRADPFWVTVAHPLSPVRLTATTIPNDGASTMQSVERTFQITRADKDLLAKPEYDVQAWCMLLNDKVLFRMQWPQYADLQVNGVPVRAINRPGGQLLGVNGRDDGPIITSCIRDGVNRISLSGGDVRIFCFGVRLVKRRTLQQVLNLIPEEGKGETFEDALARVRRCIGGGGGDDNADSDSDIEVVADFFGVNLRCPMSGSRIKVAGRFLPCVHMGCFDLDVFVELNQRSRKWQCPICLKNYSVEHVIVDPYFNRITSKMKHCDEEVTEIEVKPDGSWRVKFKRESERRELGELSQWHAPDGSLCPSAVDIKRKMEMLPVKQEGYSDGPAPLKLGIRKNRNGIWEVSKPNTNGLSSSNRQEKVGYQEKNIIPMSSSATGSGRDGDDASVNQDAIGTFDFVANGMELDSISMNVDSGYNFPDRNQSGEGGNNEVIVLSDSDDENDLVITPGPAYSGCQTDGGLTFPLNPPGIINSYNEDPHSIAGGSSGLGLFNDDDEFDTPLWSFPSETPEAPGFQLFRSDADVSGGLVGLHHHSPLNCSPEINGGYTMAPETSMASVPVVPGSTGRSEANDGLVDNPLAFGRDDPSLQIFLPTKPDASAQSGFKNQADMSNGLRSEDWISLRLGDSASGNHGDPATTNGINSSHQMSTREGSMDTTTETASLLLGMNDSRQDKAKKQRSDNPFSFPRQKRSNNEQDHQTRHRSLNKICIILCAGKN


How the values were obtained:
[1] = target: T1, GST-PHD (PHD finger of Arabidopsis SIZ1 fused to GST) (Arabidopsis); test: pull-down; 1 µg GST-PHD or GST-PHD(C162S) and 1 µg MBP-ATXSET incubated overnight in 300 µL peptide-binding buffer (50 mM Tris-HCl pH 7.5, 150 mM NaCl, 0.1% NP-40); pulled down with glutathione Sepharose beads; blot with anti-MBP; both purified
[2] = target: T2, GST-PHD(C162S) (Arabidopsis); test: as above
[3] = target: T3, SIZ1-FLAG (full-length Arabidopsis SIZ1 with FLAG and His tags) (Arabidopsis); test: co-IP; SIZ1-FH or SIZ1(C162S)-FH and ATX1-RH transiently expressed in N. benthamiana; soluble protein in lysis buffer; immunoprecipitated with anti-DYKDDDDK magnetic beads; blot with anti-RAP tag antibody (PMab2)
[4] = target: T4, SIZ1(C162S)-FLAG (Arabidopsis); test: as above

binding [1] | binding [2] | binding [3] | binding [4] | Binder
binds | binds |  |  | MBP-ATX1SET (SET domain of ATX1 fused with maltose-binding protein) (domain or fragment, UniProt Q9C5X4 898-1016) KRLAFGKSGIHGFGIFAKLPHRAGDMMIEYTGELVRPSIADKREQLIYNSMVGAGTYMFRIDDERVIDATRTGSIAHLINHSCVPNCYSRVITVNGDEHIIIFAKRHIPKWEELTYDYR
binds | binds |  |  | MBP-ATX2SET (SET domain of ATX2 fused with maltose-binding protein) (domain or fragment, UniProt P0CB22 919-1037) KRLAFGKSGIHGFGIFAKLPHRAGDMVIEYTGELVRPPIADKREHLIYNSMVGAGTYMFRIDNERVIDATRTGSIAHLINHSCEPNCYSRVISVNGDEHIIIFAKRDVAKWEELTYDYR
binds | binds |  |  | MBP-ATX4SET (SET domain of ATX4 fused with maltose-binding protein) (domain or fragment, UniProt Q9SUE7 885-1002) DRVCFGRSGIHGWGLFARRNIQEGEMVLEYRGEQVRGSIADLREARYRRVGKDCYLFKISEEVVVDATDKGNIARLINHSCTPNCYARIMSVGDEESRIVLIAKANVAVGEELTYDYL
binds | binds |  |  | MBP-ATX5SET (SET domain of ATX5 fused with maltose-binding protein) (domain or fragment, UniProt Q8GZ42 901-1018) ERVCFGRSGIHGWGLFARRNIQEGEMVLEYRGEQVRGIIADLREARYRREGKDCYLFKISEEVVVDATEKGNIARLINHSCMPNCYARIMSVGDDESRIVLIAKTTVASCEELTYDYL
 |  | binds | binds | ATX1-RAP (full-length Arabidopsis ATX1 with RAP and His tags) (protein, UniProt Q9C5X4 1-1062) MACFSNETQIEIDVHDLVEAPIRYDSIESIYSIPSSALCCVNAVGSHSLMSKKVKAQKLPMIEQFEIEGSGVSASDDCCRSDDYKLRIQRPEIVRVYYRRRKRPLRECLLDQAVAVKTESVELDEIDCFEEKKRRKIGNCELVKSGMESIGLRRCKENNAFSGNKQNGSSRRKGSSSKNQDKATLASRSAKKWVRLSYDGVDPTSFIGLQCKVFWPLDALWYEGSIVGYSAERKRYTVKYRDGCDEDIVFDREMIKFLVSREEMELLHLKFCTSNVTVDGRDYDEMVVLAATLDECQDFEPGDIVWAKLAGHAMWPAVIVDESIIGERKGLNNKVSGGGSLLVQFFGTHDFARIKVKQAISFIKGLLSPSHLKCKQPRFEEGMQEAKMYLKAHRLPERMSQLQKGADSVDSDMANSTEEGNSGGDLLNDGEVWLRPTEHVDFRHIIGDLLIINLGKVVTDSQFFKDENHIWPEGYTAMRKFTSLTDHSASALYKMEVLRDAETKTHPLFIVTADSGEQFKGPTPSACWNKIYNRIKKVQNSDSPNILGEELNGSGTDMFGLSNPEVIKLVQDLSKSRPSSHVSMCKNSLGRHQNQPTGYRPVRVDWKDLDKCNVCHMDEEYENNLFLQCDKCRMMVHAKCYGELEPCDGALWLCNLCRPGAPDMPPRCCLCPVVGGAMKPTTDGRWAHLACAIWIPETCLSDVKKMEPIDGVNKVSKDRWKLMCTICGVSYGACIQCSNNSCRVAYHPLCARAAGLCVELENDMSVEGEEADQCIRMLSFCKRHRQTSTACLGSEDRIKSATHKTSEYLPPPNPSGCARTEPYNCFGRRGRKEPEALAAASSKRLFVENQPYVIGGYSRLEFSTYKSIHGSKVSQMNTPSNILSMAEKYRYMRETYRKRLAFGKSGIHGFGIFAKLPHRAGDMMIEYTGELVRPSIADKREQLIYNSMVGAGTYMFRIDDERVIDATRTGSIAHLINHSCVPNCYSRVITVNGDEHIIIFAKRHIPKWEELTYDYRFFSIGERLSCSCGFPGCRGVVNDTEAEEQHAKICVPRCDLIDWTAE
